Assay results taken from article PMC11362010.
These are yes or no findings as the source states them, for the method shown. In cells and extracts the contact can be indirect. Some entries that bind do so weakly or less than the wild type.

Amino acid sequences for entries named in this document (tags omitted).
UniProt Q61937: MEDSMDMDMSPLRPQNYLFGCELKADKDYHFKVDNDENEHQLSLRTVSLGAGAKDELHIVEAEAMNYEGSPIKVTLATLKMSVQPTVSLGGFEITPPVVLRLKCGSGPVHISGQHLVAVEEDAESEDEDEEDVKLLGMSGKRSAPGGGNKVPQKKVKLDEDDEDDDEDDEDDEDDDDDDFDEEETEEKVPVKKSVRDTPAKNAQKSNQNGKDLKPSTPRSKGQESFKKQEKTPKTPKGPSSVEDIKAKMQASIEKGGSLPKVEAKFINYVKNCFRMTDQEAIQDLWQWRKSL
UniProt Q04207: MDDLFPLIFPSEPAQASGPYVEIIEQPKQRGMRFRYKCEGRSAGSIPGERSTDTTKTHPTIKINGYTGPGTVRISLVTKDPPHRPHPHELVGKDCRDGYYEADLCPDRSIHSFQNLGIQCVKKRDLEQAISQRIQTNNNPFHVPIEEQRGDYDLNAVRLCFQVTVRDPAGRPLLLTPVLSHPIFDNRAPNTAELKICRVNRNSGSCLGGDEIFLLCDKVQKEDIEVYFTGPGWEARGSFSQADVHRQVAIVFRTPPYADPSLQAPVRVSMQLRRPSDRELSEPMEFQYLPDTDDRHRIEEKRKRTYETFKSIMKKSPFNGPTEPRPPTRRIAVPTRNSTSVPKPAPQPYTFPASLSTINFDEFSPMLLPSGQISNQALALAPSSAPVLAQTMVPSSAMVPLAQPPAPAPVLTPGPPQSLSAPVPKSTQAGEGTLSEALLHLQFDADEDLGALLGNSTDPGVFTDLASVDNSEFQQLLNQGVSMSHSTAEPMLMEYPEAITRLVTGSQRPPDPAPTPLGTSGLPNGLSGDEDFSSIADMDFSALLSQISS

Molecular target: Nucleophosmin 1 (mouse (endogenous in MNK3)) (UniProt Q61937)
Experiment: co-IP; lysate of stimulated MNK3 cells (IL-1β and IL-23); IP lysis buffer 20 mmol/l Tris pH 7.5, 150 mmol/l NaCl, 1% Triton X-100; antibody overnight at 4 °C, protein A/G magnetic beads, washed with PBS; immunoblot

binding: binds
Substance: p65, a component of the nuclear factor kappa B (NF-κB) transcription factor (from UniProt Q04207 1-549)
